Literature values as cited in patent publication US9908851B2, “2-piperidinyl substituted N,3-dihydroxybutanamides” (Duke University, priority 2013, dated 2018).
In brackets after ≈: the same amount, converted by molar mass. At least one structure is not confirmed: it was looked up by name or label, or the drawing left a doubt.

Test system: N. gonorrhoeae 35/02 (drug-resistant strain)
Settings: strain 35/02; resistance profile of the strain

Structure (SMILES): C=CC1=C(C(=O)O)N2C(=O)[C@@H](NC(=O)/C(=N\OCC(=O)O)c3csc(N)n3)[C@H]2SC1 [cefixime]
- MIC: 0.28 mg/L (≈ 0.617 µM)
